From the supplement of paper PMC9233669
Variants at the floor of the assay are shown more often than the library holds them.

Key:
biotinyl-Ile-oxazolone = assay: self-aminoacylation, catalytic enhancement (BIO) (fold over background); higher = more active; k-Seq, kA / k0A0; sequences stand for … in GGGAAUGGAUCCACAUCUACGAAUUC…UUCACUGCAGACUUGACGAAGCUG
How it was run: (§1)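 Mutagenized RNA pools (0.43 μM; 21-nt variable region) were treated with 2–1250 μM of each biotinyl-aminoacyl-oxazolone. Conditions were 50 μL HEPES/NaCl/KCl/MgCl2/CaCl2 buffer, 5% acetonitrile, pH 6.9–7.0, room temperature, 90 minutes. Catalytic enhancement, the median kA relative to the uncatalyzed rate, was derived from streptavidin capture, qPCR and Illumina sequencing.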

biotinyl-Phe-oxazolone = assay: self-aminoacylation, catalytic enhancement (BFO) (fold over background); higher = more active; k-Seq, kA / k0A0; sequences stand for … in GGGAAUGGAUCCACAUCUACGAAUUC…UUCACUGCAGACUUGACGAAGCUG
How it was run: as §1

biotinyl-Met-oxazolone = assay: self-aminoacylation, catalytic enhancement (BMO) (fold over background); higher = more active; k-Seq, kA / k0A0; sequences stand for … in GGGAAUGGAUCCACAUCUACGAAUUC…UUCACUGCAGACUUGACGAAGCUG
How it was run: as §1

biotinyl-Val-oxazolone = assay: self-aminoacylation, catalytic enhancement (BVO) (fold over background); higher = more active; k-Seq, kA / k0A0; sequences stand for … in GGGAAUGGAUCCACAUCUACGAAUUC…UUCACUGCAGACUUGACGAAGCUG
How it was run: as §1

biotinyl-Trp-oxazolone = assay: self-aminoacylation, catalytic enhancement (BWO) (fold over background); higher = more active; k-Seq, kA / k0A0; sequences stand for … in GGGAAUGGAUCCACAUCUACGAAUUC…UUCACUGCAGACUUGACGAAGCUG
How it was run: as §1

biotinyl-Leu-oxazolone = assay: self-aminoacylation, catalytic enhancement (BLO) (fold over background); higher = more active; k-Seq, kA / k0A0; sequences stand for … in GGGAAUGGAUCCACAUCUACGAAUUC…UUCACUGCAGACUUGACGAAGCUG
How it was run: as §1

Row | Sequence | self-aminoacylation (biotinyl-Ile-oxazolone) | self-aminoacylation (biotinyl-Phe-oxazolone) | self-aminoacylation (biotinyl-Met-oxazolone) | self-aminoacylation (biotinyl-Val-oxazolone) | self-aminoacylation (biotinyl-Trp-oxazolone) | self-aminoacylation (biotinyl-Leu-oxazolone)
1 | CCACACUUCAAGCACACGGUC [Fam1B.1 aminoacylation ribozyme variant] | 0.873 | 0.864 | 0.595 | 0.907 | 0.717 | 0.655
2 | CCACACUUCAAGCCAACGGUC [Fam1B.1 aminoacylation ribozyme variant] | 0.84 | 0.532 | 0.806 | 1.05 | 0.708 | 1.04
3 | CCACACUUCAAGCGAACGGUC [Fam1B.1 aminoacylation ribozyme variant] | 0.649 | 0.607 | 0.624 | 0.719 | 0.652 | 0.506
4 | CCACACUUCAAGCGAUCGGUC [Fam1B.1 aminoacylation ribozyme variant] | 0.887 | 1.72 | 0.743 | 1.02 | 1.51 | 0.815
5 | CCACACUUCAAGCGAUCGUUC [Fam1B.1 aminoacylation ribozyme variant] | 0.877 | 0.802 | 0.716 | 0.792 | 0.52 | 0.623
6 | CCACACUUCAAGCGAUCUGUC [Fam1B.1 aminoacylation ribozyme variant] | 0.48 | 0.47 | 0.423 | 0.513 | 0.448 | 0.319
7 | CCACACUUCAAGCUGUCGGUC [Fam1B.1 aminoacylation ribozyme variant] | 0.945 | 0.535 | 0.906 | 1.2 | 0.933 | 0.96
8 | CCACACUUCAAGGAAACGGUC [Fam1B.1 aminoacylation ribozyme variant] | 0.648 | 0.735 | 0.693 | 0.632 | 0.55 | 0.633
9 | CCACACUUCAAGUAAUAGGUC [Fam1B.1 aminoacylation ribozyme variant] | 0.583 | 0.913 | 0.55 | 0.65 | 0.56 | 0.478
10 | CCACACUUCAAGUAAUCGCUC [Fam1B.1 aminoacylation ribozyme variant] | 0.915 | 0.576 | 1.22 | 1.07 | 1.18 | 1.1
11 | CCACACUUCAAUCAAUCGGUC [Fam1B.1 aminoacylation ribozyme variant] | 1.1 | 42.7 | 1.05 | 1.17 | 21.8 | 1.51
12 | CCACACUUCACGAAAUCGGUC [Fam1B.1 aminoacylation ribozyme variant] | 0.987 | 0.814 | 1.07 | 1.09 | 1.02 | 1.16
13 | CCACACUUCACGCAAUCGGUA [Fam1B.1 aminoacylation ribozyme variant] | 1.41 | 0.338 | 0.914 | 1.16 | 1.31 | 0.528
14 | CCACACUUCAGGCAAACGGUC [Fam1B.1 aminoacylation ribozyme variant] | 0.841 | 0.961 | 0.911 | 1.11 | 0.725 | 0.88
15 | CCACACUUCAGGCAAUCGGUC [Fam1B.1 aminoacylation ribozyme variant] | 1.14 | 1.47 | 1.14 | 1.27 | 1.28 | 1.11
16 | CCACACUUCAGGCACUCGGUC [Fam1B.1 aminoacylation ribozyme variant] | 1.54 | 1.54 | 1.58 | 1.75 | 1.65 | 1.89
17 | CCACACUUCAGGCAGUCGGUC [Fam1B.1 aminoacylation ribozyme variant] | 1.48 | 0.789 | 1.04 | 1.48 | 1.32 | 1.62
18 | CCACACUUCAUGCAAUCGGAC [Fam1B.1 aminoacylation ribozyme variant] | 1 | 0.671 | 0.675 | 0.986 | 0.489 | 0.558
19 | CCACACUUCAUGCAUUCGGUC [Fam1B.1 aminoacylation ribozyme variant] | 0.924 | 0.592 | 0.889 | 1.06 | 0.78 | 0.757
20 | CCACACUUCCAGCAAUCCGUC [Fam1B.1 aminoacylation ribozyme variant] | 1.49 | 1.28 | 1.23 | 1.76 | 1.24 | 1.35
21 | CCACACUUCCAGCCAUCGGUC [Fam1B.1 aminoacylation ribozyme variant] | 1.66 | 0.676 | 1.48 | 1.98 | 1.35 | 1.49
22 | CCACACUUCGGGCAAUCGGUC [Fam1B.1 aminoacylation ribozyme variant] | 2.1 | 9.3 | 2.73 | 3.09 | 2.23 | 2.48
23 | CCACACUUCUACCAAUCGGUC [Fam1B.1 aminoacylation ribozyme variant] | 0.748 | 0.893 | 0.532 | 0.807 | 0.537 | 0.697
24 | CCACACUUCUAGCAAUCAGUC [Fam1B.1 aminoacylation ribozyme variant] | 0.797 | 1.14 | 0.648 | 0.721 | 0.459 | 0.622
25 | CCACACUUCUAGCAUUCGGUC [Fam1B.1 aminoacylation ribozyme variant] | 1.24 | 0.756 | 0.998 | 1.16 | 1.33 | 0.789
26 | CCACACUUGAAGCAAACGGUC [Fam1B.1 aminoacylation ribozyme variant] | 0.576 | 0.765 | 0.422 | 0.69 | 0.492 | 0.532
